These are yes or no findings as the source states them, for the method shown. In cells and extracts the contact can be indirect. A yes stands for co-enrichment or nearness to the bait. Other partners may have been found.
Target: tripartite motif-containing protein 21 (TRIM21), expressed from adenovirus (Ad-TRIM21) (UniProt P19474)
Assay: affinity purification with mass spectrometry; TRIM21 co-IP followed by LC-MS/MS from HepG2 cells infected with Ad-TRIM21 or Ad-GFP (empty vector)

By UniProt entry, the sequences of proteins in these tests, tags left out.
UniProt P19474: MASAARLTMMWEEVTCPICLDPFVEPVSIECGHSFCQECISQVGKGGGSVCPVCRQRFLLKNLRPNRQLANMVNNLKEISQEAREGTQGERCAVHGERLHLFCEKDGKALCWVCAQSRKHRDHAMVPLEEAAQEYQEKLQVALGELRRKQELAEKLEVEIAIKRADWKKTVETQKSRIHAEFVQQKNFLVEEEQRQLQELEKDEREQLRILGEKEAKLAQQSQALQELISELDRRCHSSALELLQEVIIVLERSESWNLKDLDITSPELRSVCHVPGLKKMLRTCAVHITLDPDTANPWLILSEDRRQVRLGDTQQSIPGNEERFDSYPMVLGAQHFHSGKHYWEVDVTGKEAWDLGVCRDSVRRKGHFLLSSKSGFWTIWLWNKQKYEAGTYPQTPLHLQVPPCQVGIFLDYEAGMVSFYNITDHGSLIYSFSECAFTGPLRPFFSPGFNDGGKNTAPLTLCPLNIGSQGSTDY
UniProt P35558: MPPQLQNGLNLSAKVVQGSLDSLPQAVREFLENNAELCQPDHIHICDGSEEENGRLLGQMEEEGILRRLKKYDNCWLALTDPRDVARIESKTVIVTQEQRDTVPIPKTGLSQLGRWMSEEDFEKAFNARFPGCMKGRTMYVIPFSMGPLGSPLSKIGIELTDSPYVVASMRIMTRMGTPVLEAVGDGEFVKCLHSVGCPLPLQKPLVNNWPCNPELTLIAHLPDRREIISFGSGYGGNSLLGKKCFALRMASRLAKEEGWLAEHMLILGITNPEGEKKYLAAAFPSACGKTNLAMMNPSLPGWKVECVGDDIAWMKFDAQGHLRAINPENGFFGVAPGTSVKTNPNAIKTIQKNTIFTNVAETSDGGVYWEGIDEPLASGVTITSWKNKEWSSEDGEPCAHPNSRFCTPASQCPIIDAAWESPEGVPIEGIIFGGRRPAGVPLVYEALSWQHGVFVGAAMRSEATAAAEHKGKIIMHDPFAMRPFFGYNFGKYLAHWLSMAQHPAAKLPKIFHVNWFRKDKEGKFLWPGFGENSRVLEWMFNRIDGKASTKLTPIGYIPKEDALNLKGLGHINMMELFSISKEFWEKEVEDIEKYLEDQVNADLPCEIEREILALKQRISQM

binding: binds
Substance: phosphoenolpyruvate carboxykinase-1 (PEPCK1), endogenous in HepG2 (from UniProt P35558 1-622)
